Assay [1] deals with T1, B cell lymphoma/leukemia 10 (BCL10) (human (endogenous in Jurkat)), O95999.
T1 chain: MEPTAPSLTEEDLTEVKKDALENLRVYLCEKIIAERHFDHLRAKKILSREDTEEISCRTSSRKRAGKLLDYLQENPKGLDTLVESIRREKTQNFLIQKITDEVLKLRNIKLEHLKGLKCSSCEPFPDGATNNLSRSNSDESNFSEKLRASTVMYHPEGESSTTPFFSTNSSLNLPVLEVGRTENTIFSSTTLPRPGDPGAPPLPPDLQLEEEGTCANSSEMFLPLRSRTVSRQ
The assay can be described thus: affinity purification with mass spectrometry; anti-BCL10 (C-17) IP from CK1α KO Jurkat T cells reconstituted with CK1α WT, untreated or P/I stimulated 20 min; 1% NP40 buffer; on-bead digestion, quantitative LC-MS/MS (n = 3). As to conditions: remark: other sources report otherwise.

Substrate in assay [2]: T2, B cell lymphoma/leukemia 10 (BCL10) (human (endogenous in Jurkat)) (UniProt O95999)
T2 sequence: T1 chain
The description is as above.

No constants are given. Whether binding was seen depends on the method and setting. Binding seen in cells or lysates may run through a third protein. A yes stands for co-enrichment or nearness to the bait. Other partners may have been found.

B1: Heme-oxidized IRP2 ubiquitin ligase 1 (HOIL-1), Q9BYM8 1-510 (protein)
chain: MDEKTKKAEEMALSLTRAVAGGDEQVAMKCAIWLAEQRVPLSVQLKPEVSPTQDIRLWVSVEDAQMHTVTIWLTVRPDMTVASLKDMVFLDYGFPPVLQQWVIGQRLARDQETLHSHGVRQNGDSAYLYLLSARNTSLNPQELQRERQLRMLEDLGFKDLTLQPRGPLEPGPPKPGVPQEPGRGQPDAVPEPPPVGWQCPGCTFINKPTRPGCEMCCRARPEAYQVPASYQPDEEERARLAGEEEALRQYQQRKQQQQEGNYLQHVQLDQRSLVLNTEPAECPVCYSVLAPGEAVVLRECLHTFCRECLQGTIRNSQEAEVSCPFIDNTYSCSGKLLEREIKALLTPEDYQRFLDLGISIAENRSAFSYHCKTPDCKGWCFFEDDVNEFTCPVCFHVNCLLCKAIHEQMNCKEYQEDLALRAQNDVAARQTTEMLKVMLQQGEAMRCPQCQIVVQKKDGCDWIRCTVCHTEICWVTKGPRWGPGGPGDTSGGCRCRVNGIPCHPSCQNCH
On to B1, for which, in assay [1], the binding result is “binds”.

B2: SHANK-associated RH domain interactor (SHARPIN), Q9H0F6 1-387 (protein)
chain: MAPPAGGAAAAASDLGSAAVLLAVHAAVRPLGAGPDAEAQLRRLQLSADPERPGRFRLELLGAGPGAVNLEWPLESVSYTIRGPTQHELQPPPGGPGTLSLHFLNPQEAQRWAVLVRGATVEGQNGSKSNSPPALGPEACPVSLPSPPEASTLKGPPPEADLPRSPGNLTEREELAGSLARAIAGGDEKGAAQVAAVLAQHRVALSVQLQEACFPPGPIRLQVTLEDAASAASAASSAHVALQVHPHCTVAALQEQVFSELGFPPAVQRWVIGRCLCVPERSLASYGVRQDGDPAFLYLLSAPREAPATGPSPQHPQKMDGELGRLFPPSLGLPPGPQPAASSLPSPLQPSWSCPSCTFINAPDRPGCEMCSTQRPCTWDPLAAAST
B2: the binding entry in assay [1] was “binds”.

B3: Aryl hydrocarbon receptor-interacting protein (AIP) (protein, UniProt O00170 1-330)
chain: MADIIARLREDGIQKRVIQEGRGELPDFQDGTKATFHYRTLHSDDEGTVLDDSRARGKPMELIIGKKFKLPVWETIVCTMREGEIAQFLCDIKHVVLYPLVAKSLRNIAVGKDPLEGQRHCCGVAQMREHSSLGHADLDALQQNPQPLIFHMEMLKVESPGTYQQDPWAMTDEEKAKAVPLIHQEGNRLYREGHVKEAAAKYYDAIACLKNLQMKEQPGSPEWIQLDQQITPLLLNYCQCKLVVEEYYEVLDHCSSILNKYDDNVKAYFKRGKAHAAVWNAQEAQADFAKVLELDPALAPVVSRELRALEARIRQKDEEDKARFRGIFSH
With B3, the binding entry in assay [2] is on record as “binds”.

B4: IKKε (IKBKE) (protein, UniProt Q14164 1-716)
chain: MQSTANYLWHTDDLLGQGATASVYKARNKKSGELVAVKVFNTTSYLRPREVQVREFEVLRKLNHQNIVKLFAVEETGGSRQKVLVMEYCSSGSLLSVLESPENAFGLPEDEFLVVLRCVVAGMNHLRENGIVHRDIKPGNIMRLVGEEGQSIYKLTDFGAARELDDDEKFVSVYGTEEYLHPDMYERAVLRKPQQKAFGVTVDLWSIGVTLYHAATGSLPFIPFGGPRRNKEIMYRITTEKPAGAIAGAQRRENGPLEWSYTLPITCQLSLGLQSQLVPILANILEVEQAKCWGFDQFFAETSDILQRVVVHVFSLSQAVLHHIYIHAHNTIAIFQEAVHKQTSVAPRHQEYLFEGHLCVLEPSVSAQHIAHTTASSPLTLFSTAIPKGLAFRDPALDVPKFVPKVDLQADYNTAKGVLGAGYQALRLARALLDGQELMFRGLHWVMEVLQATCRRTLEVARTSLLYLSSSLGTERFSSVAGTPEIQELKAAAELRSRLRTLAEVLSRCSQNITETQESLSSLNRELVKSRDQVHEDRSIQQIQCCLDKMNFIYKQFKKSRMRPGLGYNEEQIHKLDKVNFSHLAKRLLQVFQEECVQKYQASLVTHGKRMRVVHETRNHLRLVGCSVAACNTEAQGVQESLSKLLEELSHQLLQDRAKGAQASPPPIAPYPSPTRKDLLLHMQELCEGMKLLASDLLDNNRIIERLNRVPAPPDV
Take B4: in assay [2], the binding result is reported as “binds”.

For the origin of these results see publication PMC8803816.
